Source: PubChem BioAssay AID1671195 (Yale University, 2021)
This is an unselected part of about 22,000 reagents tested. Over the whole deposit, about 1,510 (6.9%) are marked active. 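Active includes knockdowns raising or lowering LDL uptake; positive z-scores mean more uptake, negative mean less.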 Unmarked entries are inactive.

Screen: 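Genes whose knockdown alters LDL uptake in liver cancer cells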 (primary screen)
Cell system: human Huh7 hepatoma cells
Reagent: siRNA pool against human genes, 18 nM
Duration: about 2 to 2.5 days of knockdown, then 8 h LDL uptake
Challenge: DiI-labelled LDL at 30 µg/ml for 8 h, in lipoprotein-deficient serum medium
Measured: 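Per-cell DiI-LDL intensity by automated imaging; well means scaled to the plate median and given as a robust z-score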
Direction: robust z-score: higher = more LDL uptake after knockdown
Call rule: 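Active when two or more replicates show a robust z-score above 2 or below -2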

Target gene,"robust z-score, replicate 1","robust z-score, replicate 2","robust z-score, replicate 3"
PPP1R11 (GeneID 6992),-1.54,-0.52,-2.1
CELSR1 (GeneID 9620),0.523,0.529,0.498
PSTK (GeneID 118672),0.465,0.673,0.0922
LOC402196 (retired record) (GeneID 402196),-0.296,-0.742,0.36
IFI6 (GeneID 2537),3.11 (active),2.55,2.55
GRIK4 (GeneID 2900),0.398,0.644,0.601
RSKR (GeneID 124923),-1.32,-1.41,-1.59
VSNL1 (GeneID 7447),0.834,0.729,0.452
ACTR3 (GeneID 10096),0.146,-0.788,-0.566
LPCAT3 (GeneID 10162),1.3,1.27,1.89
WEE1 (GeneID 7465),-0.241,-0.0379,-0.243
ZNF177 (GeneID 7730),0.543,1.24,0.955
LOC440121 (retired record) (GeneID 440121),-0.59,-0.816,-0.869
ARL4D (GeneID 379),-0.461,2.02,0.528
PLEKHS1 (GeneID 79949),0.78,0.983,0.673
CXCL10 (GeneID 3627),2.8,0.148,1.46
B3GNT6 (GeneID 192134),-0.404,-0.399,-0.0964
ALDOA (GeneID 226),-0.499,-0.413,-0.665
LOC401937 (retired record) (GeneID 401937),-0.785,-0.51,-0.068
UNQ9370 (retired record) (GeneID 400454),0.0561,2.11,0.831
SNX15 (GeneID 29907),-0.393,-0.129,-2.42
LOX (GeneID 4015),-0.865,-0.411,-0.578
MMP27 (GeneID 64066),-1.43,-1.83,-1.57
LOC401357 (GeneID 401357),0.0351,-0.156,-0.475
TRMT61A (GeneID 115708),-2.37 (active),-1.52,-1.9
ANGPTL4 (GeneID 51129),-0.08,0.0684,0.188
LOC442483 (retired record) (GeneID 442483),-1.43,-0.129,-1.14
POU6F1 (GeneID 5463),-1.65,-2.02,-1.79
ELK4 (GeneID 2005),0.396,0.173,-0.0111
TAF6L (GeneID 10629),-0.992,-1.07,-1.02
TMEM163 (GeneID 81615),-0.195,-0.744,-0.35
FBP2 (GeneID 8789),-0.871,-1.15,-0.591
TRUB2 (GeneID 26995),-1.04,-0.693,-0.195
KCNH3 (GeneID 23416),-1.97,-1.86,-1.84
MFAP4 (GeneID 4239),0.874,0.762,0.575
NADSYN1 (GeneID 55191),-1.08,-0.0938,0.594
ZFP69 (GeneID 339559),0.305,0.28,0.637
HSBP1L1 (GeneID 440498),-0.00863,-0.441,-0.339
BCDIN3D (GeneID 144233),-0.717,-0.709,-0.49
AREG (GeneID 374),-1.54,-1.07,-1.37
LOC440284 (retired record) (GeneID 440284),0.0272,0.00997,0.093
RHBDD3 (GeneID 25807),-1.36,-2.28,-1.99
MGAM2 (GeneID 93432),0.627,0.93,1.28
MSL1 (GeneID 339287),0.644,0.768,0.378
CDC40 (GeneID 51362),1.31,-0.438,-1.12
DEFB136 (GeneID 613210),4.22 (active),3.65,5.04
LOC400571 (retired record) (GeneID 400571),0.0863,0.188,0.691
PAX7 (GeneID 5081),0.703,1.21,1.88
CATSPERQ (GeneID 340393),-0.99,-0.251,-0.819
LGR6 (GeneID 59352),-0.958,-0.634,0.125
UFM1 (GeneID 51569),-1.59,-1.71,-0.994
EXOC1 (GeneID 55763),1.16,-0.148,0.91
RTL6 (GeneID 84247),3.92 (active),2.23,2.38
SLC35F6 (GeneID 54978),-0.302,0.508,0.104
LOC440616 (retired record) (GeneID 440616),-2.4 (active),-1.99,-2.06
PGRMC1 (GeneID 10857),1.78,1.45,1.59
LINC00615 (GeneID 439916),-0.156,0.423,0.307
MLPH (GeneID 79083),-1.28,-0.448,-1.1
PRKCG (GeneID 5582),-1.31,-1.03,-1.33
MYO18B (GeneID 84700),1.87,2.5,0.163
LINC01734 (GeneID 339568),0.365,0.392,0.274
WFDC10B (GeneID 280664),-1.04,-0.884,-1.12
MRPS5 (GeneID 64969),0.418,0.441,0.545
OSBPL10 (GeneID 114884),-0.209,0.585,-0.0124
PPME1 (GeneID 51400),1.58,1.36,1.67
ALPL (GeneID 249),1.19,1.08,1.53
TMCO5A (GeneID 145942),-2.18 (active),-2.11,-2.12
RNF38 (GeneID 152006),2.8 (active),2.29,1.81

Active calls, of those listed so far:
Target gene,"robust z-score, replicate 1","robust z-score, replicate 2","robust z-score, replicate 3"
IFI6 (GeneID 2537),3.11 (active),2.55,2.55
TRMT61A (GeneID 115708),-2.37 (active),-1.52,-1.9
DEFB136 (GeneID 613210),4.22 (active),3.65,5.04
RTL6 (GeneID 84247),3.92 (active),2.23,2.38
LOC440616 (retired record) (GeneID 440616),-2.4 (active),-1.99,-2.06
TMCO5A (GeneID 145942),-2.18 (active),-2.11,-2.12
RNF38 (GeneID 152006),2.8 (active),2.29,1.81
